Test results reported in article PMC6142190.
These are yes or no findings as the source states them, for the method shown. For some assays here: In cells and extracts the contact can be indirect. Some entries that bind do so weakly or less than the wild type. For some assays here: Sequences can lack the tags named with a protein. Values belong to the binder of their own block, whether it stands above or below them.

How the values were obtained:
[1] = target: FLAG-tagged FIH fragment 1-349 (human), Q9NWT6; assay: co-IP; FIH fragments (1-164, 1-295, 1-349) expressed in HEK293; lysates immunoprecipitated and immunoblotted; settings: remark: other sources report otherwise
[2] = target: Factor Inhibiting HIF (FIH), endogenous (human (endogenous in HEK293)), Q9NWT6; assay: co-IP; HEK293 lysates incubated with anti-FIH or anti-NAA10 antibody overnight at 4 °C, protein A/G beads, immunoblot; also after 2 mM DMOG for 6 h or lowered oxygen for 24 h (interaction reinforced); settings: remark: other sources report otherwise
[3] = target: GST-FIH (human), Q9NWT6; assay: pull-down; GST-FIH (0.5 μg) and His-NAA10 (0.5 μg) in binding buffer (25 mM HEPES pH 7.5, 150 mM KCl, 12.5 mM MgCl2, 0.5 mM DTT, 0.1% NP-40, 10% glycerol), 4 °C, 1 h; glutathione affinity beads; Western blot; both purified; settings: remark: other sources report otherwise
[4] = target: GST-FIH (human), Q9NWT6; assay: pull-down; in vitro binding and acetylation assay: GST-FIH (0.5 μg) with His-NAA10 (0.5 μg) in acetylation buffer (50 mM Tris pH 8.0, 400 μM acetyl CoA), 37 °C, 2 h; GST-FIH pulled down on glutathione beads; Western blot; both purified; settings: remark: other sources report otherwise
[5] = target: HA-FIH (human), Q9NWT6; assay: co-IP; HEK293 transfected with HA-FIH and/or FLAG/SBP-NAA10; lysates on anti-HA or anti-FLAG affinity gel, 4 °C, 4 h; immunoblot; settings: remark: other sources report otherwise
[6] = target: T1, FLAG-tagged FIH fragment 1-295 (human) (UniProt Q9NWT6); assay: co-IP; FIH fragments (1-164, 1-295, 1-349) expressed in HEK293; lysates immunoprecipitated and immunoblotted
T1 sequence: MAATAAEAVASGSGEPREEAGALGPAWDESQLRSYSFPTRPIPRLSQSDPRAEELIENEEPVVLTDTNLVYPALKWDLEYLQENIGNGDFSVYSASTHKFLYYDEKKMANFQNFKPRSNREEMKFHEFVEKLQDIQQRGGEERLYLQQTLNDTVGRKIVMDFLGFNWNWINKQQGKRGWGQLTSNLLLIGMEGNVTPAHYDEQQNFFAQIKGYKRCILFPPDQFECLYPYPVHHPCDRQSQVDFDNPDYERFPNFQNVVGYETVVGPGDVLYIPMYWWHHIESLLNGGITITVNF

[7] = target: T2, NAA10, endogenous (human (endogenous in HEK293)), P41227; assay: co-IP; HEK293 lysates incubated with anti-FIH or anti-NAA10 antibody overnight at 4 °C, protein A/G beads, immunoblot; also after 2 mM DMOG for 6 h or lowered oxygen for 24 h (interaction reinforced); settings: remark: other sources report otherwise
T2 chain: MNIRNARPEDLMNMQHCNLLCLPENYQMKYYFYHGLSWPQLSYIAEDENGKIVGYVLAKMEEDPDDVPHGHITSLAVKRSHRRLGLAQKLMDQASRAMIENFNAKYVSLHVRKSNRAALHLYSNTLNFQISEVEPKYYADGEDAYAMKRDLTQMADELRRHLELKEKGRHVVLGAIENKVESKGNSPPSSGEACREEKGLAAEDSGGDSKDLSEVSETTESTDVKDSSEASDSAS

[8] = target: T3, FLAG/SBP-NAA10 (human), P41227; assay: co-IP; HEK293 transfected with HA-FIH and/or FLAG/SBP-NAA10; lysates on anti-HA or anti-FLAG affinity gel, 4 °C, 4 h; immunoblot; settings: remark: other sources report otherwise
T3 chain: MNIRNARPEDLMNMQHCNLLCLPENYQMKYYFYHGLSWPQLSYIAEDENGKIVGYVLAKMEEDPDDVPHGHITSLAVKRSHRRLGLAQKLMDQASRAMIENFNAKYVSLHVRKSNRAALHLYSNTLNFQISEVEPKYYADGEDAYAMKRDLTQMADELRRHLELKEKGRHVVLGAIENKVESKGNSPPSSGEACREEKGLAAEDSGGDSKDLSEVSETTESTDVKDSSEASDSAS

binding [1]: binds
binding [2]: binds
B1: NAA10, endogenous, P41227 1-235 (enzyme)
chain: MNIRNARPEDLMNMQHCNLLCLPENYQMKYYFYHGLSWPQLSYIAEDENGKIVGYVLAKMEEDPDDVPHGHITSLAVKRSHRRLGLAQKLMDQASRAMIENFNAKYVSLHVRKSNRAALHLYSNTLNFQISEVEPKYYADGEDAYAMKRDLTQMADELRRHLELKEKGRHVVLGAIENKVESKGNSPPSSGEACREEKGLAAEDSGGDSKDLSEVSETTESTDVKDSSEASDSAS

binding [3]: binds
binding [4]: binds
B2: His(6)-NAA10 WT, P41227-1 1-235 (enzyme)
chain: MNIRNARPEDLMNMQHCNLLCLPENYQMKYYFYHGLSWPQLSYIAEDENGKIVGYVLAKMEEDPDDVPHGHITSLAVKRSHRRLGLAQKLMDQASRAMIENFNAKYVSLHVRKSNRAALHLYSNTLNFQISEVEPKYYADGEDAYAMKRDLTQMADELRRHLELKEKGRHVVLGAIENKVESKGNSPPSSGEACREEKGLAAEDSGGDSKDLSEVSETTESTDVKDSSEASDSAS

binding [5]: binds
B3: FLAG/SBP-NAA10, P41227-1 1-235 (enzyme)
chain: MNIRNARPEDLMNMQHCNLLCLPENYQMKYYFYHGLSWPQLSYIAEDENGKIVGYVLAKMEEDPDDVPHGHITSLAVKRSHRRLGLAQKLMDQASRAMIENFNAKYVSLHVRKSNRAALHLYSNTLNFQISEVEPKYYADGEDAYAMKRDLTQMADELRRHLELKEKGRHVVLGAIENKVESKGNSPPSSGEACREEKGLAAEDSGGDSKDLSEVSETTESTDVKDSSEASDSAS

binding [6]: binds
B4: NAA10, endogenous (enzyme, UniProt P41227 1-235)
chain: MNIRNARPEDLMNMQHCNLLCLPENYQMKYYFYHGLSWPQLSYIAEDENGKIVGYVLAKMEEDPDDVPHGHITSLAVKRSHRRLGLAQKLMDQASRAMIENFNAKYVSLHVRKSNRAALHLYSNTLNFQISEVEPKYYADGEDAYAMKRDLTQMADELRRHLELKEKGRHVVLGAIENKVESKGNSPPSSGEACREEKGLAAEDSGGDSKDLSEVSETTESTDVKDSSEASDSAS

binding [7]: binds
B5: Factor Inhibiting HIF (FIH), endogenous, Q9NWT6 1-349 (enzyme)
chain: MAATAAEAVASGSGEPREEAGALGPAWDESQLRSYSFPTRPIPRLSQSDPRAEELIENEEPVVLTDTNLVYPALKWDLEYLQENIGNGDFSVYSASTHKFLYYDEKKMANFQNFKPRSNREEMKFHEFVEKLQDIQQRGGEERLYLQQTLNDTVGRKIVMDFLGFNWNWINKQQGKRGWGQLTSNLLLIGMEGNVTPAHYDEQQNFFAQIKGYKRCILFPPDQFECLYPYPVHHPCDRQSQVDFDNPDYERFPNFQNVVGYETVVGPGDVLYIPMYWWHHIESLLNGGITITVNFWYKGAPTPKRIEYPLKAHQKVAIMRNIEKMLGEALGNPQEVGPLLNTMIKGRYN

binding [8]: binds
B6: HA-FIH, Q9NWT6 1-349 (enzyme)
chain: MAATAAEAVASGSGEPREEAGALGPAWDESQLRSYSFPTRPIPRLSQSDPRAEELIENEEPVVLTDTNLVYPALKWDLEYLQENIGNGDFSVYSASTHKFLYYDEKKMANFQNFKPRSNREEMKFHEFVEKLQDIQQRGGEERLYLQQTLNDTVGRKIVMDFLGFNWNWINKQQGKRGWGQLTSNLLLIGMEGNVTPAHYDEQQNFFAQIKGYKRCILFPPDQFECLYPYPVHHPCDRQSQVDFDNPDYERFPNFQNVVGYETVVGPGDVLYIPMYWWHHIESLLNGGITITVNFWYKGAPTPKRIEYPLKAHQKVAIMRNIEKMLGEALGNPQEVGPLLNTMIKGRYN
